Test results: ChEMBL document CHEMBL6109084, “Discovery of potent, highly selective, and orally bioavailable factor XIa inhibitors for anticoagulant therapy” (Eur J Med Chem, 2025)
≈ marks a conversion by molar mass, not a printed value.

Test: physchem
Conditions: pH 7.4

CC[C@@H](C(=O)Nc1ccc(C(N)=O)c(F)c1)n1cc(OC)c(-c2cc(Cl)ccc2-n2cc(C(F)(F)F)nn2)cc1=O
solubility kinetic at 12 h: 94 µg/mL (≈ 159 µM)
